Percent effect of library compounds

By UniProt entry, the sequences of proteins in these tests, tags left out. Residues count along the entry.
UniProt A4I591, 1-473: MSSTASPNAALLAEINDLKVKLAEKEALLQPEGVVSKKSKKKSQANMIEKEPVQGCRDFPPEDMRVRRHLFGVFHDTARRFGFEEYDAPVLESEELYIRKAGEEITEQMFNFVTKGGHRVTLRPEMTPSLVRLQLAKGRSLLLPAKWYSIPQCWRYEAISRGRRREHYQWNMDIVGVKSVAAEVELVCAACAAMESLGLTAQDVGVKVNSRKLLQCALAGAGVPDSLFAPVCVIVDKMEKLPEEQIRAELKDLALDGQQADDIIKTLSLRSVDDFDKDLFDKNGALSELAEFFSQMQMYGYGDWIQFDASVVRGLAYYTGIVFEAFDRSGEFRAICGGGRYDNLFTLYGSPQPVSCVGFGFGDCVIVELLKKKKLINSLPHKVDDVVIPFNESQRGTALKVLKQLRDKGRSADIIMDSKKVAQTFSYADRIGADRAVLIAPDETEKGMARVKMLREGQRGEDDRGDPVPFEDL
UniProt P9WFT3, whole entry: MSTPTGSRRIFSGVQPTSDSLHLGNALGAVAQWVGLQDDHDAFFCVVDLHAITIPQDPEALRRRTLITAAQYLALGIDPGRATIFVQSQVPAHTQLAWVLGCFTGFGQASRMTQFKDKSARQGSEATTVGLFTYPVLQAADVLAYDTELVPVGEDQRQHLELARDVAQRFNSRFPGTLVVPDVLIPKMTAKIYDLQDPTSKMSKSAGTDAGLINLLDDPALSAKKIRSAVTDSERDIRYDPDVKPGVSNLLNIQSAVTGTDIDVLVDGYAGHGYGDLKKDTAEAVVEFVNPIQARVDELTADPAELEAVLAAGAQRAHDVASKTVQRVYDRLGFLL
UniProt P9WNZ1, whole entry: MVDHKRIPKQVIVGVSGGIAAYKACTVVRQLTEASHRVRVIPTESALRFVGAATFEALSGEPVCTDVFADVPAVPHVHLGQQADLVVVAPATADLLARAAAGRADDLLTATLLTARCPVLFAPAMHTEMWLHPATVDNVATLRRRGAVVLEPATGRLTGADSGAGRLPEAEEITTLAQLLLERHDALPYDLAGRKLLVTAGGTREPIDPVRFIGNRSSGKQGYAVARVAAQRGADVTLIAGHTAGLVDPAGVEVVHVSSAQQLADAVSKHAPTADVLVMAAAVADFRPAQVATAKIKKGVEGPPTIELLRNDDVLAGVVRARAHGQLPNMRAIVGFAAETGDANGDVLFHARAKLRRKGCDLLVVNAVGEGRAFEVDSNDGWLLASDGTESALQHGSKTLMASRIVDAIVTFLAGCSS

Measurements from “University of Dundee, Small-Polar-MMV Screening Library” (2021), ChEMBL document CHEMBL3988442.

LiHisRS: 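Enzyme assay of histidyl-tRNA synthetase; the read-out is not stated. Target: Histidine-tRNA ligase, Leishmania infantum (UniProt A4I591). Tested at 30 µM. Direction is inferred from retests: higher values go with stronger inhibition. The assay is labelled LdHisRS but filed under L. infantum. About 69,000 compounds were tested under these conditions; 0.6% (about 410) showed 50% or more at least once.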
MtTrpRS: 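Enzyme assay of tryptophanyl-tRNA synthetase; the read-out is not stated. Target: Tryptophan-tRNA ligase, Mycobacterium tuberculosis (UniProt P9WFT3). Tested at 10 µM. Direction is not recorded; retested compounds ran higher, which suggests that high means inhibition. Of about 65,000 compounds tested this way, about 64 (0.098%) reached 50% or more in at least one test.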
Toxoplasma: 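Assay of Toxoplasma gondii numbers, read through their beta-galactosidase reporter with a colour substrate. Compounds at 10 µM. The record gives no direction; the compounds picked for IC50 retests had high values, so higher reads as fewer parasites. Of about 67,000 compounds tested this way, about 260 (0.38%) reached 50% or more in at least one test.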
CoaBC: 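Enzyme assay of CoaBC with a phosphate dye (Biomol Green) read at 650 nm. Target: Coenzyme A biosynthesis protein CoaBC, Mycobacterium tuberculosis (UniProt P9WNZ1). Tested at 30 µM. Direction is inferred from only a few compounds that gave an IC50; most scored high, so higher reads as stronger inhibition. Most strong results did not repeat in a second test. About 67,000 compounds were tested under these conditions; 0.06% (about 40) showed 50% or more at least once.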

Results are given as percent effect.
The record does not define 0% and 100%; most values in the screen are far below 50% and negative numbers occur (in some assays of this library far below -100).
This is an unselected part of the compounds tested.
A dash means the value is not listed here; it may have been measured.

For CC(C)C1CCC(N2CCN(CCCS(C)(=O)=O)CC2)CC1 (configuration not stated) the result was LiHisRS: 13.54%; MtTrpRS: -5.47%; Toxoplasma: -0.1836%; CoaBC: -9.375%. CC(C)(C)C(=O)NCCCC(=O)NC(C)(C)c1ccc2c(c1)OCO2 gave LiHisRS: 5.882%; MtTrpRS: -2.001%; Toxoplasma: 13.72%; CoaBC: 4.061%. Result for Cc1nonc1N1CCN(Cc2nc(CC3CC3)no2)CC1 was LiHisRS: 4.478%; MtTrpRS: 1.729%; Toxoplasma: -3.795%; CoaBC: 1.606%. Cc1noc(-c2cccnc2N(C)Cc2ccc([S+](C)[O-])cc2)n1 (configuration not stated) read LiHisRS: 10.53%; MtTrpRS: -5.932%; Toxoplasma: -0.9604%; CoaBC: 11.29%. COCCCN(Cc1ccccn1)S(=O)(=O)Cc1ccccc1 read LiHisRS: -1.124%; MtTrpRS: -3.155%; Toxoplasma: -51.42%; CoaBC: -5.208%. With CC(=O)N(C)c1nc(CN2CCCCC2Cn2cncn2)cs1 (configuration not stated) the screen gave LiHisRS: 0%; MtTrpRS: 2.478%; Toxoplasma: 0.1059%; CoaBC: 2.169%. With c1coc(-c2nc3c(c(N4CCCN5CCC[C@H]5C4)n2)CCNCC3)c1 the screen gave LiHisRS: 30.14%; MtTrpRS: 0%; CoaBC: -34.09%.

CCN1CCC(NC(=O)CNC(C)Cn2cccn2)CC1 (configuration not stated) gave LiHisRS: 21.92%; MtTrpRS: 2.341%; Toxoplasma: -1.431%; CoaBC: -5.992%. Result for C(=C\c1ccccc1)/CNCC1CCc2nncn2C1 (configuration not stated) was Toxoplasma: 15.11%. Result for CCCc1cc(NCCCC2CCOC2)n2nccc2n1 (configuration not stated) was LiHisRS: 9.677%; MtTrpRS: -5.131%; Toxoplasma: -4.092%; CoaBC: 8.436%. O=C(NCC1CC2(CO1)CN(Cc1cccs1)C2)C1CCC1 (configuration not stated) read LiHisRS: -2.703%; CoaBC: -4.455%. For CCSCCn1c(=O)n(Cc2ccc(F)cc2)c2ncc(C(=O)O)cc21 the result was LiHisRS: 8.547%; MtTrpRS: 3.497%; Toxoplasma: -6.02%; CoaBC: 3.419%. CCc1ccc(OCC(=O)N2CCN(CC)CC2)cc1 read LiHisRS: 6.202%; MtTrpRS: 1.232%; Toxoplasma: 5.732%; CoaBC: -0.6143%. COc1ccc(CNC(=O)Nc2ccc(CN3CCOC3=O)cc2)cc1 gave LiHisRS: 15.15%; MtTrpRS: -3.416%; Toxoplasma: 7.663%; CoaBC: -6.903%.

For O=C(O)C(F)(F)F.O=C(O)C(F)(F)F.O=C(O)C(F)(F)F.[H][C@@]12COC[C@]1(COCc1ccncc1)CN(Cc1ccccn1)C2 the result was Toxoplasma: -11%. For O=C(O)C(F)(F)F.O=C(O)C(F)(F)F.[H][C@@]12CN(Cc3ccoc3)C[C@]1([H])OCCN2c1ccc(C)nn1 the result was Toxoplasma: -8.882%. Result for Cc1cccc(C(=O)N2C[C@@H](C)[C@@]3(CCN(c4ccsc4)C3=O)C2)n1.O=C(O)C(F)(F)F was Toxoplasma: -9.707%.

2 of the entries, repeated:

Compound,LiHisRS,MtTrpRS,Toxoplasma,CoaBC
CCSCCn1c(=O)n(Cc2ccc(F)cc2)c2ncc(C(=O)O)cc21,8.547,3.497,-6.02,3.419
Cc1cccc(C(=O)N2C[C@@H](C)[C@@]3(CCN(c4ccsc4)C3=O)C2)n1.O=C(O)C(F)(F)F,-,-,-9.707,-